{"source": "PubChem BioAssay AID602196, INSERM | 2012", "screen": "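Modifiers of cisplatin sensitivity in A549 cells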", "system": "human A549 lung cancer cells", "reagent": "siRNA pair against human genes", "time to read-out": "48 h transfection before cisplatin; time from cisplatin to read-out not stated", "treatment": "cisplatin at a dose killing half of control-siRNA cells; exact dose and duration not given", "measured": "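Cisplatin cell death as a shift from the 50% death seen with control siRNA; siRNAs toxic or growth-blocking alone scored 0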", "scale": "two-siRNA summed score (-2 to +2): higher = both siRNAs protect from cisplatin killing; -2 means both sensitise", "hit rule": "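Each siRNA scores 0 if harmful alone by LDH or WST-1, otherwise +1 if it reduces and -1 if it increases cisplatin killing; a gene is active when both siRNAs agree (sum +2 or -2)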", "calls": "active = both siRNAs shift cisplatin killing the same way; inactive = no consistent shift, or siRNA harmful alone", "note": "In all, the deposit lists about 23,000 reagents; this is an unselected part. 455 of them (2%) count as active. 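Active includes both protection and sensitisation; some change values fall well beyond the stated -50 to +50 range.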 A number with no mark means an inactive call. Further read-outs or replicates are left out here. Not stated in the record: the amount of reagent."}
{"Gene": "TPMT", "PubChem SID": "SID131511379", "two-siRNA summed score (-2 to +2)": 0}
{"Gene": "PCDHGA4", "PubChem SID": "SID131511416", "two-siRNA summed score (-2 to +2)": 0}
{"Gene": "CRABP1", "PubChem SID": "SID131502029", "two-siRNA summed score (-2 to +2)": -1}
{"Gene": "TEKT2", "PubChem SID": "SID131516185", "two-siRNA summed score (-2 to +2)": 0}
{"Gene": "CAMK2B", "PubChem SID": "SID131503471", "two-siRNA summed score (-2 to +2)": 0}
{"Gene": "DENR", "PubChem SID": "SID131516365", "two-siRNA summed score (-2 to +2)": 0}
{"Gene": "LRRC56", "PubChem SID": "SID131507861", "two-siRNA summed score (-2 to +2)": 0}
{"Gene": "CCL18", "PubChem SID": "SID131515479", "two-siRNA summed score (-2 to +2)": 0}
{"Gene": "LOC149157", "PubChem SID": "SID131517672", "two-siRNA summed score (-2 to +2)": 0}
{"Gene": "GNA12", "PubChem SID": "SID131506322", "two-siRNA summed score (-2 to +2)": 0}
{"Gene": "PIK3C2B", "PubChem SID": "SID131523024", "two-siRNA summed score (-2 to +2)": "2 (active)"}
{"Gene": "KRT37", "PubChem SID": "SID131516540", "two-siRNA summed score (-2 to +2)": 0}
{"Gene": "LOC90193", "PubChem SID": "SID131510869", "two-siRNA summed score (-2 to +2)": 0}
{"Gene": "MPC2", "PubChem SID": "SID131520069", "two-siRNA summed score (-2 to +2)": 1}
{"Gene": "ADGRE5", "PubChem SID": "SID131522091", "two-siRNA summed score (-2 to +2)": 1}
{"Gene": "DDX42", "PubChem SID": "SID131516045", "two-siRNA summed score (-2 to +2)": 0}
{"Gene": "AVPR1A", "PubChem SID": "SID131513464", "two-siRNA summed score (-2 to +2)": 0}
{"Gene": "NKAIN1", "PubChem SID": "SID131510379", "two-siRNA summed score (-2 to +2)": 0}
{"Gene": "UBE2Q1", "PubChem SID": "SID131502626", "two-siRNA summed score (-2 to +2)": -1}
{"Gene": "CSF1R", "PubChem SID": "SID131501843", "two-siRNA summed score (-2 to +2)": -1}
{"Gene": "LOC389036", "PubChem SID": "SID131521732", "two-siRNA summed score (-2 to +2)": 1}
{"Gene": "OR51B4", "PubChem SID": "SID131506695", "two-siRNA summed score (-2 to +2)": 0}
{"Gene": "PPM1D", "PubChem SID": "SID131521921", "two-siRNA summed score (-2 to +2)": 1}
{"Gene": "MAGEA1", "PubChem SID": "SID131517387", "two-siRNA summed score (-2 to +2)": 0}
{"Gene": "ATG10", "PubChem SID": "SID131504047", "two-siRNA summed score (-2 to +2)": 0}
{"Gene": "HUWE1", "PubChem SID": "SID131504051", "two-siRNA summed score (-2 to +2)": 0}
{"Gene": "LSM1", "PubChem SID": "SID131513007", "two-siRNA summed score (-2 to +2)": 0}
{"Gene": "LOC200213", "PubChem SID": "SID131522525", "two-siRNA summed score (-2 to +2)": 1}
{"Gene": "LOC388237", "PubChem SID": "SID131518013", "two-siRNA summed score (-2 to +2)": 0}
{"Gene": "DNHD1", "PubChem SID": "SID131503761", "two-siRNA summed score (-2 to +2)": 0}
{"Gene": "DNHD1", "PubChem SID": "SID131504907", "two-siRNA summed score (-2 to +2)": 0}

5 neighbouring entries already listed, quoted:
{"Gene": "CSF1R", "PubChem SID": "SID131501843", "two-siRNA summed score (-2 to +2)": -1}
{"Gene": "LOC389036", "PubChem SID": "SID131521732", "two-siRNA summed score (-2 to +2)": 1}
{"Gene": "OR51B4", "PubChem SID": "SID131506695", "two-siRNA summed score (-2 to +2)": 0}
{"Gene": "PPM1D", "PubChem SID": "SID131521921", "two-siRNA summed score (-2 to +2)": 1}
{"Gene": "MAGEA1", "PubChem SID": "SID131517387", "two-siRNA summed score (-2 to +2)": 0}
